The list shows a part of the results. Rule as the data show it: active = 2-fold of DMSO or more and inactive = the rest. Single values of this set are uncertain. Some low values are a fixed figure set by the source, not a measured ratio.

The subject of this assay is CM7/1-hgem mouse ES cell-derived cardiomyocytes. Briefly: maximal number of mAG-hGem(1/110)-positive cardiomyocytes over 96 h, fold-change vs DMSO; higher = more cardiomyocyte cell cycle activity. As to conditions: 1 µM; 96 (max over 12 h time points) h.
For the molecule `O=C(O)c1cc(=O)[nH]c(=O)[nH]1`, the maximal number is inactive: 1.
Take `COc1ccc([C@H]2Oc3cc(OC)cc(OC)c3C[C@H]2O)cc1`: the maximal number is inactive: 1.
The value for `CC(C)CCC[C@@H](C)[C@H]1CC[C@H]2[C@@H]3CC=C4C[C@@H](O)CC[C@]4(C)[C@H]3CC[C@]12C` was inactive: 1; that for `CC(O)(CC(=O)O)CC(=O)O` was inactive: 1.
The figure for `COc1ccc2[nH]c([S@@+]([O-])Cc3ncc(C)c(OC)c3C)nc2c1` is inactive: 1.
The value for `CC(=O)Oc1cc(-c2coc3cc(OC(C)=O)c(OC(C)=O)c(OC(C)=O)c3c2=O)cc(OC(C)=O)c1OC(C)=O` was inactive: 1; that for `CC1(C)CC[C@]2(C(=O)O)CC[C@]3(C)C(=CC[C@@H]4[C@@]5(C)CC[C@H](O)[C@@](C)(CO)[C@@H]5CC[C@]43C)[C@@H]2C1` was inactive: 1.
Consider `CC(C)C[C@H](N)C(=O)N[C@@H](C)C(=O)O`, for which the maximal number was inactive: 1.
The value for `CC1=Nc2ccc(Cl)cc2S(=O)(=O)N1` was inactive: 1; that for `O=S(=O)(O)CCSSCCS(=O)(=O)O` was inactive: 0; that for `O=C(O)c1cc(/N=N/c2ccc(O)c(C(=O)O)c2)ccc1O` was inactive: 1.
Regarding `O=c1cc(-c2ccc(O)cc2)oc2cc(O[C@@H]3O[C@H](CO)[C@@H](O)[C@H](O)[C@H]3O)cc(O)c12`, the maximal number was inactive: 1.
The value for `CC1(C)C(=O)C=CC2(C)C1C=CC1(C)C2CCC2(C)C(c3ccoc3)OC(=O)C3OC312` (centres undefined) was inactive: 1; that for `O=C(O[C@@H]1Cc2c(O)cc(O)cc2O[C@@H]1c1cc(O)c(=O)c2c(O)c(O)cc([C@H]3Oc4cc(O)cc(O)c4C[C@H]3OC(=O)c3cc(O)c(O)c(O)c3)c2c1)c1cc(O)c(O)c(O)c1` was inactive: 1.

Source of the values: the supplement of paper PMC9549374.
